Source: PMC7319344
Results are given in words; binding and its absence hold for the method and conditions named. Binding seen in cells or lysates may run through a third protein. A yes stands for co-enrichment or nearness to the bait. Other partners may have been found. Where a sequence is shown, tags or fusion partners need not be part of it.

Amino acid sequences for entries named in this document (tags omitted). A change or cut given only in a name is not applied to a line headed by its entry.
UniProt A0A1D8PF19: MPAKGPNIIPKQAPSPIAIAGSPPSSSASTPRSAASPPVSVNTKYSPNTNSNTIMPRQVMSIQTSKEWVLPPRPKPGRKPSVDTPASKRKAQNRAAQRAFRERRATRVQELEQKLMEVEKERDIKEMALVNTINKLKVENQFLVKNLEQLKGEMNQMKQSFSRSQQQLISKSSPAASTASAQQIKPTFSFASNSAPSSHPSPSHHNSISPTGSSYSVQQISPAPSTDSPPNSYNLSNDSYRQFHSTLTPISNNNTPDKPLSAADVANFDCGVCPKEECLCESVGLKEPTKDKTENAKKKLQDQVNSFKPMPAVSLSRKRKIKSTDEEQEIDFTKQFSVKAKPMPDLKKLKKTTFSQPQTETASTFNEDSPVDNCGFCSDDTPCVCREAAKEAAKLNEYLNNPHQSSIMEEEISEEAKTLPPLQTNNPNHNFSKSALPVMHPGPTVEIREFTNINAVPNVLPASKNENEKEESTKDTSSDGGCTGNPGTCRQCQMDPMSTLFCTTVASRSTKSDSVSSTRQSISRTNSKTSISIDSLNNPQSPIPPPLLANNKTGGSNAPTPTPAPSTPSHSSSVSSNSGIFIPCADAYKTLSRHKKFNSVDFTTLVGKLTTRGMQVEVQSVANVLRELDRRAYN
UniProt A0A1D8PRQ4: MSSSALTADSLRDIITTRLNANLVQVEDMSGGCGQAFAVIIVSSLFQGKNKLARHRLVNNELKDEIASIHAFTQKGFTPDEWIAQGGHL

What follows are substances tested against T1, Grx3-HBH (C. albicans monothiol glutaredoxin Grx3 with His-Biotin-His tag) (C. albicans) (UniProt Q5AF81) (assay: affinity purification with mass spectrometry; in vivo cross-linking with 1% formaldehyde for 10 min, His-Biotin-His (HBH) tandem affinity purification of Grx3-HBH under denaturing conditions (lysis in 8M urea buffer), label-free quantitative LC-MS/MS; cells grown in YPM with or without 500 uM BPS for 6hr or 16hr; proteins in untagged control, Wor1/Tup1 HBH purifications and the CRAPome excluded).
T1 sequence: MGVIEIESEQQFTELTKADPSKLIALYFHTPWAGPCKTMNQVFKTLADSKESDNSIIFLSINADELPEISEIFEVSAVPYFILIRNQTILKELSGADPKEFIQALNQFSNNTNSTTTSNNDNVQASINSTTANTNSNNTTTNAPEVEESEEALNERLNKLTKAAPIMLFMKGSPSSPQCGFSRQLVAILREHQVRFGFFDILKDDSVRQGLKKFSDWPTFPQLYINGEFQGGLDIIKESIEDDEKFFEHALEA
With Hap43 (from UniProt A0A1D8PF19 1-634) the binding was “binds”. With “Fra1 (C. albicans (endogenous in C. albicans))” the binding was “binds”. With “Dre2 (C. albicans (endogenous in C. albicans))” the binding was “binds”. For “Met18 (S. cerevisiae Mms19) (C. albicans (endogenous in C. albicans))”, the binding was “binds”. In the case of Bol2/Fra2 (from UniProt A0A1D8PRQ4), the binding is reported as “binds”. In the case of “Bol1 (C. albicans (endogenous in C. albicans))”, the binding is reported as “binds”.
